Laboratory results as given in PMC8128249.
No constants are given. Whether binding was seen depends on the method and setting. In cells and extracts the contact can be indirect. Some binding calls cover weakened binding; strength is not graded here.

Molecular target: T1, TGF-beta activated kinase 1 (MAP3K7) binding protein 3 (human (231 is a human TNBC cell line; endogenous or transfected not stated for Figure 6G, H)) (UniProt Q8N5C8)
T1 sequence: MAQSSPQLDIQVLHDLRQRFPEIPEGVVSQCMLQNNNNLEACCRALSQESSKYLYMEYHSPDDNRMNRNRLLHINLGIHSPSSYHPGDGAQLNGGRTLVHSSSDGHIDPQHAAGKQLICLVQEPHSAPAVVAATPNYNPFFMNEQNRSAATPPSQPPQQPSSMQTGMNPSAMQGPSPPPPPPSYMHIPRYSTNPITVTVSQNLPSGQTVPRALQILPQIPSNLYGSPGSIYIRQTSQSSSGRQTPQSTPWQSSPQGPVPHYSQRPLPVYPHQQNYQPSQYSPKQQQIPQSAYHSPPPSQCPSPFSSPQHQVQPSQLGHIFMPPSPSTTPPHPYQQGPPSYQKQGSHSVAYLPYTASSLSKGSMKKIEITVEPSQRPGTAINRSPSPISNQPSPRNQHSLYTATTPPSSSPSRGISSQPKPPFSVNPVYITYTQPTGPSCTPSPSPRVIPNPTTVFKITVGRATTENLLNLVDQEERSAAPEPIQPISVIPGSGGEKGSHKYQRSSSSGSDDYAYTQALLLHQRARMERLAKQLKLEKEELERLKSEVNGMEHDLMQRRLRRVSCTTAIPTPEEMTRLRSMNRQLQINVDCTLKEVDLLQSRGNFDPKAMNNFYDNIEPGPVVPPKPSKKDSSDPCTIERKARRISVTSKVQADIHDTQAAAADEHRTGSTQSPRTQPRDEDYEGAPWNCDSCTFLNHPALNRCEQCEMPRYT
Experiment: co-IP; immunoprecipitation with TAB3 antibody, blot for endogenous TAB2; cells with or without Lnc-PCIR overexpression (association decreased on overexpression)

B1: TGF-beta activated kinase 1 (MAP3K7) binding protein 2 (protein, UniProt Q9NYJ8 1-693)
chain: MAQGSHQIDFQVLHDLRQKFPEVPEVVVSRCMLQNNNNLDACCAVLSQESTRYLYGEGDLNFSDDSGISGLRNHMTSLNLDLQSQNIYHHGREGSRMNGSRTLTHSISDGQLQGGQSNSELFQQEPQTAPAQVPQGFNVFGMSSSSGASNSAPHLGFHLGSKGTSSLSQQTPRFNPIMVTLAPNIQTGRNTPTSLHIHGVPPPVLNSPQGNSIYIRPYITTPGGTTRQTQQHSGWVSQFNPMNPQQVYQPSQPGPWTTCPASNPLSHTSSQQPNQQGHQTSHVYMPISSPTTSQPPTIHSSGSSQSSAHSQYNIQNISTGPRKNQIEIKLEPPQRNNSSKLRSSGPRTSSTSSSVNSQTLNRNQPTVYIAASPPNTDELMSRSQPKVYISANAATGDEQVMRNQPTLFISTNSGASAASRNMSGQVSMGPAFIHHHPPKSRAIGNNSATSPRVVVTQPNTKYTFKITVSPNKPPAVSPGVVSPTFELTNLLNHPDHYVETENIQHLTDPTLAHVDRISETRKLSMGSDDAAYTQALLVHQKARMERLQRELEIQKKKLDKLKSEVNEMENNLTRRRLKRSNSISQIPSLEEMQQLRSCNRQLQIDIDCLTKEIDLFQARGPHFNPSAIHNFYDNIGFVGPVPPKPKDQRSIIKTPKTQDTEDDEGAQWNCTACTFLNHPALIRCEQCEMPRHF
With B1 the binding was “binds”.
